Measured values published in the supplement of paper PMC4604168 (melanoma cell lines).
Some of the results follow. Repeats are few or missing, and single values can be far off.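 The apoptosis fraction was the count of cleaved-PARP antibody-stained nuclei relative to all DNA-stained nuclei, imaged in 1,536-well plates. Screening doses were set so most cells survived, and baseline and induced cleaved-PARP levels vary greatly across cell lines.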

Experiments:
Assay in all cases: cleaved PARP positive nuclei fraction relative to DMSO control; melanoma cells; higher = more apoptosis
Conditions in all cases: library dose: low library concentration; 72 h
501Mel = tested on: 501Mel
A101D = tested on: A101D
A2058 = tested on: A2058
A375 = tested on: A375
C32 = tested on: C32
CBRC013 = tested on: CBRC013 (line from a melanoma biopsy)
CBRC014 = tested on: CBRC014 (line from a melanoma biopsy)
CBRC016 = tested on: CBRC016 (line from a melanoma biopsy)
CBRC017 = tested on: CBRC017 (line from a melanoma biopsy)
CBRC008 = tested on: CBRC008 (line from a melanoma biopsy)

SMILES	cleaved PARP positive nuclei fraction (501Mel) [%]	cleaved PARP positive nuclei fraction (A101D) [%]	cleaved PARP positive nuclei fraction (A2058) [%]	cleaved PARP positive nuclei fraction (A375) [%]	cleaved PARP positive nuclei fraction (C32) [%]	cleaved PARP positive nuclei fraction (CBRC013) [%]	cleaved PARP positive nuclei fraction (CBRC014) [%]	cleaved PARP positive nuclei fraction (CBRC016) [%]	cleaved PARP positive nuclei fraction (CBRC017) [%]	cleaved PARP positive nuclei fraction (CBRC008) [%]
CN(NC(=O)CC(=O)NN(C)C(=S)c1ccccc1)C(=S)c1ccccc1 + O=C1NC(=O)/C(=C/c2ccc(-c3ccc(F)cc3O)o2)S1 [AS252424] (first compound 0.006 µM, partner dose 1 µM)	190	140	120	1180	228	163	581	127	104	
COc1ccc2c(c1)CCC1C2CCC2(C)C(NCCCCCCN3C(=O)C=CC3=O)CCC12 (centres undefined) + Cn1cc(/C=C2\C(=O)Nc3cccnc32)c2ccccc21 [GW441756] (first compound 0.4 µM, partner dose 0.4 µM)	40.5	104	124	666	122	79.6	142	139	94.7	
N#Cc1c(O)c2c(-c3ccc(-c4ccccc4O)cc3)csc2[nH]c1=O + COc1ccc(COc2ccc(Cc3cnc(N)nc3N)cc2OC)cc1 [GW2580] (first compound 2 µM, partner dose 1 µM)	100	56.5	58.6	146	100	193	100	84.9	76.3	
CN(C)S(=O)(=O)c1ccc2c(c1)/C(=C/c1cc3c([nH]1)CCCC3)C(=O)N2 + COc1cc2ncnc(Nc3ccc(Oc4ccccc4)cc3)c2cc1OC [SrcI1] (first compound 0.4 µM, partner dose 2 µM)	63.4	127	189	218	124	146	121	108	152	
CCc1ccc(CCOc2ccc(CC3SC(=O)NC3=O)cc2)nc1 (centres undefined) [pioglitazone] + O=C1NC(=O)/C(=C/c2ccc(-c3ccc(F)cc3O)o2)S1 [AS252424] (first compound 2 µM, partner dose 1 µM)	171	114	100	53.3	51	149	95.7	115	79.2	
O=C(Nc1ccccc1)c1cc([N+](=O)[O-])ccc1Cl + COc1ccc2c(c1)CCC1C2CCC2(C)C(NCCCCCCN3C(=O)C=CC3=O)CCC12 [U73122] (first compound 2 µM, partner dose 0.4 µM)	48.1	180	65.6	70.2	68	109	93.4	182	70.7	
CCc1ccc(CCOc2ccc(CC3SC(=O)NC3=O)cc2)nc1 (centres undefined) [pioglitazone] + COc1cc(N2CCC(N3CCN(C)CC3)CC2)ccc1Nc1ncc(Cl)c(Nc2ccccc2S(=O)(=O)C(C)C)n1 [NVP-TAE684] (first compound 2 µM, partner dose 0.08 µM)	44.8	117	119	185	138	290	98.6	73.4	89.4	
CN(C)S(=O)(=O)c1ccc2c(c1)/C(=C/c1cc3c([nH]1)CCCC3)C(=O)N2 + CN(NC(=O)CC(=O)NN(C)C(=S)c1ccccc1)C(=S)c1ccccc1 [STA4783] (first compound 0.4 µM, partner dose 0.006 µM)	620	182	171	4190	126	147	647	408	244	4820
COc1ccc(-c2ccc3c(N4CCOCC4)nc(N4C[C@@H](C)O[C@@H](C)C4)nc3n2)cc1CO + Oc1cc(-c2nc(-c3ccccc3)[nH]c2-c2ccncc2)ccc1Cl [L779450] (first compound 0.02 µM, partner dose 0.2 µM)	63.3	79.9	168	142	73.3	75.5	103	153	96.2	
O=C(Nc1ccccc1)c1cc([N+](=O)[O-])ccc1Cl + Cn1cc(/C=C2\C(=O)Nc3cccnc32)c2ccccc21 [GW441756] (first compound 2 µM, partner dose 0.4 µM)	54.4	123	37.7	357	129	390	187	118	65.4	
COc1ccc2c(c1)CCC1C2CCC2(C)C(NCCCCCCN3C(=O)C=CC3=O)CCC12 (centres undefined) + COc1ccc(COc2ccc(Cc3cnc(N)nc3N)cc2OC)cc1 [GW2580] (first compound 0.4 µM, partner dose 1 µM)	67.5	232	42.7	293	293	158	97.2	179	77.6	
Cc1cc([N+](=O)[O-])ccc1NS(=O)(=O)c1cc(Cl)ccc1Cl + COc1cc(N2CCC(N3CCN(C)CC3)CC2)ccc1Nc1ncc(Cl)c(Nc2ccccc2S(=O)(=O)C(C)C)n1 [NVP-TAE684] (first compound 1 µM, partner dose 0.08 µM)	48.4	350	109	78.4	198	135	150	3300	571	

Random excerpt: 2 entries already listed.
SMILES	cleaved PARP positive nuclei fraction (501Mel) [%]	cleaved PARP positive nuclei fraction (A101D) [%]	cleaved PARP positive nuclei fraction (A2058) [%]	cleaved PARP positive nuclei fraction (A375) [%]	cleaved PARP positive nuclei fraction (C32) [%]	cleaved PARP positive nuclei fraction (CBRC013) [%]	cleaved PARP positive nuclei fraction (CBRC014) [%]	cleaved PARP positive nuclei fraction (CBRC016) [%]	cleaved PARP positive nuclei fraction (CBRC017) [%]	cleaved PARP positive nuclei fraction (CBRC008) [%]
CN(C)S(=O)(=O)c1ccc2c(c1)/C(=C/c1cc3c([nH]1)CCCC3)C(=O)N2 + COc1cc2ncnc(Nc3ccc(Oc4ccccc4)cc3)c2cc1OC [SrcI1] (first compound 0.4 µM, partner dose 2 µM)	63.4	127	189	218	124	146	121	108	152	
O=C(Nc1ccccc1)c1cc([N+](=O)[O-])ccc1Cl + Cn1cc(/C=C2\C(=O)Nc3cccnc32)c2ccccc21 [GW441756] (first compound 2 µM, partner dose 0.4 µM)	54.4	123	37.7	357	129	390	187	118	65.4	
